59 molecules from PubChem BioAssay AID2685 (National Center for Advancing Translational Sciences (NCATS), 2010) can be followed below.

Some of the results follow. Shown are side measurements of this screen, not its main read-out; they come without a call. Most of these compounds were active or inconclusive in the main read-out, so they are no random draw. Words in brackets tell the shape of the fitted curve; partial curves, single points and poor fits give uncertain potencies.

A short description of this assay: qHTS Assay for Lipid Storage Modulators in Drosophila S3 Cells.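 For cell number change: cells counted by Cell Tracker Red CMTPX staining in the red channel.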 To be noted: BODIPY lipid droplet fluorescence, 18-24 h; for cell number change: measured here: cell count max response, cells fed with added oleic acid. In outline:
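Laser-scanning cytometry quantifies lipid droplet accumulation (500–530 nm total intensity; droplet/cell object ratio) in oleic acid-fed (400 uM added) Drosophila S3 cells treated with a concentration series. 20 uM Triacsin C defined 100% inhibition.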
(qHTS replaces the single test concentration by a dilution series.)

Where [1] appears, read: measured here: cell number channel AC50, cells fed with added oleic acid.
Where [2] appears, read: measured here: lipid fluorescence (Fed channel) AC50, cells fed with added oleic acid.

On to `Cc1ccc(NC(=O)COc2ccccc2)c(NC(=O)c2ccco2)c1`, for which the half-maximal activity concentration (AC50) (in general, the concentration giving half of the maximal activity seen) under setting [1] is 0.103 µM [rising, full curve, poor fit].
On to `CCn1c(=NC(=O)CSC(C)=O)sc2cc(F)ccc21`, for which the cell number change was -26%. For the same molecule, the AC50 under setting [2] is 6.51 µM [falling, single point].
Regarding `COc1ccc(NCc2ccc(OC)c(Cn3ccnc3)c2)c(OC)c1`, the cell number change is 8.12%. In addition, the AC50 under setting [1] was 4.61 µM [rising, partial curve, poor fit]. Under setting [2], the half-maximal activity concentration (AC50) was 3.66 µM [rising, partial curve, poor fit].
Consider `CC(C)CN(c1ccccc1)S(=O)(=O)c1nnc(NC(=O)c2ccco2)s1`, for which the cell number change was 2.14%. In addition, under setting [2], the AC50 is 3.66 µM [falling, single point].
For the molecule `O=C(CSc1nnc(-c2ccc(O)cc2)n1Cc1ccccc1)NNC(=O)c1ccc(Br)cc1`, the cell number change is 6.71%. The AC50 under setting [1] was 3.66 µM [falling, single point]. Further, the AC50 under setting [2] is 2.06 µM [falling, partial curve].
As for `O=C1c2[nH]nc(-c3ccccc3O)c2C(c2cccc(Cl)c2)N1CC1CCCO1` (stereo not drawn), the cell number change is 7.56%. Also, the AC50 under setting [2] was 1.84 µM [rising, partial curve, poor fit].
Regarding `O=C(Nc1ccccc1)Nc1cccc2nsnc12`, the cell number change is -13.2%. Also, the concentration at half-maximal activity (AC50) under setting [2] is 29.1 µM [falling, single point].
For the molecule `CCn1c(CNC(=O)c2ccco2)nnc1SCC(=O)Nc1ccccc1Cl`, the cell number change is -10.5%. The AC50 under setting [2] was 29.1 µM [rising, single point].
Regarding `CCOc1ccc(NC(=O)COc2ccc(C(=O)NCCc3ccccc3)cc2)cc1`, the cell number change is 15.4%. Further, the AC50 under setting [2] is 16.4 µM [rising, partial curve, poor fit].
Take `COc1ccc(-c2ccc(NC(=O)c3ccco3)cc2)nn1`: the cell number change was -8.22%. The AC50 under setting [2] is 6.51 µM [falling, single point].
Take `CC1CCCN(S(=O)(=O)c2ccc(S(=O)(=O)NC(C)c3cccs3)cc2)C1` (stereo not drawn): the AC50 under setting [1] is 6.51 µM [rising, single point].
On to `C=CCNc1nc(N)c([N+](=O)[O-])c(Nc2cccc(Cl)c2)n1`, for which the cell number change is -4.01%. Moreover, the AC50 under setting [2] is 0.461 µM [falling, full curve, poor fit].
Regarding `COc1cccc(CNCCOCCO)c1OC`, the cell number change stood at 2.23%.
Regarding `O=C(O)CCCCCN1C(=O)C(=O)/C(=C(/O)c2ccccc2)C1c1ccccc1` (stereo not drawn), the cell number change is -9.74%. Moreover, the AC50 under setting [2] is 0.13 µM [falling, full curve].
With `O=C(NCCSCc1ccco1)Nc1cccc(Cl)c1`, the AC50 under setting [1] is 6.51 µM [falling, single point].
As for `CCc1cc(C(=O)NN2C(=O)NC3(CCCCC3)C2=O)sc1C`, the cell number change turned out to be 5.09%.
Take `CN(C)c1oc(-c2ccco2)nc1S(=O)(=O)c1ccc(Br)cc1`: the cell number change worked out at 37%. Further, the AC50 under setting [1] was 4.61 µM [rising, partial curve, poor fit]. Also, the AC50 under setting [2] was 9.2 µM [rising, partial curve].
In the case of `Cc1cc(-n2c(C)cc(C(=O)CSc3ccc4c(c3)OCCO4)c2C)no1`, the cell number change is -29.7%. Under setting [2], the concentration at half-maximal activity (AC50) is 16.4 µM [falling, partial curve, poor fit].
Regarding `O=C(CSc1nc2[nH]ncc2c(=O)[nH]1)Nc1cccc(Cl)c1`, the cell number change was -47.5%. Moreover, the AC50 under setting [1] is 29.1 µM [falling, single point].
In the case of `O=C(O)c1ccc(Cn2cnc3scc(-c4ccccc4)c3c2=O)cc1`, the cell number change was found to be 2.46%. In addition, the AC50 under setting [2] is 6.51 µM [rising, partial curve, poor fit].
As to `COc1ccccc1N1C(=NC(=O)C2CCCCC2)SC2CS(=O)(=O)CC21` (stereo not drawn), the cell number change came out at 7.63%. Further, under setting [2], the half-maximal activity concentration (AC50) was 29.1 µM [rising, single point].
On to `COc1ccc(S(=O)(=O)NC2(C(F)(F)F)NC(=O)N(CCc3ccccc3)C2=O)cc1` (stereo not drawn), for which the cell number change stood at 8.97%. Also, under setting [2], the AC50 is 0.58 µM [falling, partial curve].
Turning to `Cc1ccc(NC(=O)COC(=O)C2CC2)c(Br)c1`, the cell number change is -16.6%.
`Cc1cccc(NC(=O)C(Cc2ccccc2)c2nn[nH]n2)c1C` (stereo not drawn): the cell number change was 14.2%. In addition, the half-maximal activity concentration (AC50) under setting [2] is 4.11 µM [falling, single point].
`CCCC(C(=O)NC1CCCC1)N(Cc1ccccc1)C(=O)c1snc(C(N)=O)c1N` (stereo not drawn): the cell number change was 21.3%. In addition, under setting [2], the concentration at half-maximal activity (AC50) was 29.1 µM [falling, partial curve].
Take `COc1ccccc1NS(=O)(=O)c1cc(N/C(=N\S(=O)(=O)c2ccccc2)c2ccc(F)cc2)ccc1Cl`: the cell number change is -0.4%. Also, under setting [2], the AC50 was 0.366 µM [rising, full curve, poor fit].
On to `O=C(Cn1c(NCCO)nc2ccccc21)c1cccs1`, for which the cell number change is 53.1%. Also, under setting [1], the half-maximal activity concentration (AC50) was 9.2 µM [rising, partial curve, poor fit].
Take `COC(=O)c1ccc(CSc2nc3ccccc3o2)cc1`: the cell number change is -6.88%.
On to `Cn1cccc1/C=C1\SC(=S)N(NC(=O)c2ccccc2Cl)C1=O`, for which the cell number change was 9.28%.
As to `COc1ccc(CCN2C(=O)CC(NCCc3ccc(S(N)(=O)=O)cc3)C2=O)cc1OC` (stereo not drawn), the cell number change is 39.4%. Further, the AC50 under setting [1] was 29.1 µM [rising, single point]. Further, the AC50 under setting [2] was 6.51 µM [falling, single point].
Regarding `O=C(CO/N=C/c1c(Cl)cccc1Cl)NNC(=O)c1ccc(Cl)cc1`, the cell number change came out at 19.8%. Besides, the AC50 under setting [1] is 1.84 µM [rising, partial curve, poor fit].
Consider `O=C(c1cc(-c2ccc(Cl)cc2)n[nH]1)N1CCN(C(=O)c2ccco2)CC1`, for which the cell number change is -12.8%. Besides, the concentration at half-maximal activity (AC50) under setting [2] is 6.51 µM [rising, single point].
In the case of `O=C(Nc1nc2c(F)cccc2s1)C1CC1`, the cell number change was -18.7%. Further, the AC50 under setting [2] is 0.92 µM [rising, partial curve].
In the case of `Cc1oc2cc(OCC(=O)O)ccc2c(=O)c1Oc1ccccc1`, the cell number change is -16.1%. In addition, under setting [2], the concentration at half-maximal activity (AC50) is 0.184 µM [falling, full curve, poor fit].
In the case of `O=C(O)CCCc1ccc2c(c1)CCc1ccccc1-2`, the cell number change stood at 32.3%. For the same molecule, the AC50 under setting [1] is 32.6 µM [rising, partial curve, poor fit]. For the same molecule, the AC50 under setting [2] was 29.1 µM [rising, single point].
Regarding `Cc1ccc(OCC(=O)NCCc2c[nH]c3ccccc23)cc1`, the cell number change is -7.76%.
Take `CSc1nc2ccc(S(=O)(=O)NC3CCCCC3)cc2s1`: the cell number change turned out to be 21%. The AC50 under setting [1] was 2.06 µM [rising, full curve, poor fit]. Also, the half-maximal activity concentration (AC50) under setting [2] is 23.1 µM [rising, single point].
In the case of `CC(C)N(C(=O)c1ccccc1-c1ccccc1)C(C)C`, the cell number change was -10.5%. Also, under setting [2], the AC50 was 18.4 µM [rising, single point].
Take `COC(=O)c1cc(S(=O)(=O)N2CCCC(C)C2)cn1C` (stereo not drawn): the cell number change was -31.4%. The AC50 under setting [1] was 6.51 µM [falling, full curve, poor fit].
`O=C(COC(=O)c1ccccn1)Nc1cccc2ccccc12`: the cell number change is -87.4%. For the same molecule, the half-maximal activity concentration (AC50) under setting [1] is 20.6 µM [falling, single point]. Further, the AC50 under setting [2] is 29.1 µM [falling, single point].
Regarding `COc1ccc(-c2sc3ccccc3c2C#CC2(O)CCCCC2)cc1`, the cell number change is -10.8%. Moreover, under setting [2], the AC50 is 0.164 µM [falling, full curve, poor fit].
As to `O=C(NCCOc1ccc(F)cc1)C1CCC(=O)N(CCN2CCOCC2)C1` (stereo not drawn), the cell number change worked out at 23.2%. For the same molecule, the concentration at half-maximal activity (AC50) under setting [2] is 7.31 µM [rising, partial curve].
With `CC(C)C1N(C(=O)N2CCOCC2)CCN1S(=O)(=O)c1ccccc1` (stereo not drawn), the cell number change worked out at 8.33%. For the same molecule, the half-maximal activity concentration (AC50) under setting [2] was 29.1 µM [falling, single point].
Take `O=S(=O)(c1cccc(F)c1)N1CCN(c2ncnc3scc(-c4ccc(F)cc4)c23)CC1`: the cell number change was 2.49%. For the same molecule, the AC50 under setting [2] is 0.0058 µM [rising, full curve, poor fit].
For `O=C(O)CCN1C(=O)/C(=C\c2cccc(OCc3ccccc3)c2)SC1=S`, the cell number change came to 4.35%. Besides, the AC50 under setting [2] is 29.1 µM [rising, single point].
On to `COc1ccc(C2NCCc3c2[nH]c2ccccc32)cc1COc1ccc(F)cc1` (stereo not drawn), for which the cell number change is -70.7%. Also, the concentration at half-maximal activity (AC50) under setting [1] is 18.4 µM [falling, single point]. The AC50 under setting [2] was 0.731 µM [falling, full curve].
With `Cc1c(N=C/C=C/c2ccccc2)c(=O)n(-c2ccccc2)n1C`, the cell number change is -0.361%. Further, the concentration at half-maximal activity (AC50) under setting [2] is 0.146 µM [falling, full curve].
As for `N#C/C(=N\Nc1ccc(Cl)cc1)C(N)=S`, the cell number change was -27%. For the same molecule, under setting [1], the half-maximal activity concentration (AC50) was 0.00461 µM [falling, full curve, poor fit]. The concentration at half-maximal activity (AC50) under setting [2] was 29.1 µM [falling, partial curve, poor fit].
Consider `CCCCN(C)CCNC(=O)Cn1ncc2c(=O)oc3ccc(C)cc3c21`, for which the cell number change is -5.88%. The half-maximal activity concentration (AC50) under setting [2] was 5.17 µM [falling, partial curve, poor fit].
Take `N#CC1(c2ccccc2)CCCN1C(=O)c1ccccc1Br` (stereo not drawn): the cell number change worked out at 15.6%. For the same molecule, the concentration at half-maximal activity (AC50) under setting [1] is 0.00461 µM [rising, full curve, poor fit].
Consider `O=C(NN1CCN(Cc2ccccc2)CC1)c1ccc(N2CCOCC2)c([N+](=O)[O-])c1`, for which the cell number change is -6.23%. The AC50 under setting [1] is 7.31 µM [falling, single point].
Take `Cc1nc2cc(C(=O)N3CCN(C)CC3)ccc2n1C`: the cell number change worked out at 11.6%. For the same molecule, the AC50 under setting [2] was 3.66 µM [rising, single point].
As for `Cc1cc(C)c(S(=O)(=O)NCc2ccc3c(c2)cc(C)n3C)c(C)c1`, the cell number change came to 5.39%. Also, under setting [1], the AC50 was 0.651 µM [falling, single point]. Moreover, the AC50 under setting [2] is 0.651 µM [falling, partial curve, poor fit].
Take `O=C(NCCNc1ccc([N+](=O)[O-])cc1)c1cccs1`: the cell number change is -18.2%. For the same molecule, under setting [2], the concentration at half-maximal activity (AC50) was 29.1 µM [rising, single point].
On to `CCOC(=O)C1CN(S(=O)(=O)c2ccc(C)cc2)CCN1S(=O)(=O)c1ccc(C)cc1` (stereo not drawn), for which the cell number change is -9.4%.
Turning to `O=C(N/N=C/c1cc([N+](=O)[O-])ccc1O)c1cccc2ccccc12`, the cell number change was 0.296%. Under setting [2], the AC50 is 2.51 µM [rising, single point].
Regarding `Cc1ccc(C)c(N2CCN(C(=O)Cn3cccc3)CC2)c1`, the cell number change turned out to be 20.7%.
For the molecule `CNC(=O)[C@@H]1CCC(=O)N1`, the cell number change was determined as 3.05%. For the same molecule, under setting [2], the concentration at half-maximal activity (AC50) was 0.116 µM [rising, full curve].
On to `CC1CCC(NC(=O)c2cnccn2)CC1` (stereo not drawn), for which the cell number change is 42.3%. Further, the AC50 under setting [1] is 9.2 µM [rising, single point]. Also, the half-maximal activity concentration (AC50) under setting [2] was 2.06 µM [rising, partial curve].
